Laboratory results from US12006373.
No constants are given. Whether binding was seen depends on the method and setting. Some binding calls cover weakened binding; strength is not graded here.

Sequences of proteins named here, by UniProt entry; tags and fusion partners are left off. A change or cut given only in a name is not applied to a line headed by its entry. Residues count along the entry.
UniProt P07766: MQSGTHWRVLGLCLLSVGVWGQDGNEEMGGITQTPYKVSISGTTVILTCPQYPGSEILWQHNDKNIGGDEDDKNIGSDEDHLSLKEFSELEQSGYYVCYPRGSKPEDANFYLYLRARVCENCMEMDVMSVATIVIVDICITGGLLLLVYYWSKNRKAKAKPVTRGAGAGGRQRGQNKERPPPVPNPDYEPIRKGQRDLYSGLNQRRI
human CD3ε expressed on Jurkat T cells (clone E6-1) as part of TCR-CD3 complexes: residues 23-207 of P07766
recombinant human CD3ε biotinylated at the C-terminus, on streptavidin-coated microbeads: residues 23-126 of P07766

Experiments:
[1] = target: recombinant human CD3ε protein with Fc-tag (Sino Biological) (human) (UniProt P07766); assay: biopanning of Ph.D.-7 phage library on recombinant CD3ε-Fc captured on protein A/G magnetic beads
[2] = target: human CD3ε expressed on Jurkat T cells (clone E6-1) as part of TCR-CD3 complexes (human) (UniProt P07766); assay: flow cytometry, phage on paraformaldehyde-fixed Jurkat cells, anti-M13 antibody
[3] = target: human CD3ε expressed on Jurkat T cells (clone E6-1) as part of TCR-CD3 complexes (human) (UniProt P07766); assay: flow cytometry, phage on Jurkat cells
[4] = target: human CD3ε expressed on Jurkat T cells (clone E6-1) as part of TCR-CD3 complexes (human) (UniProt P07766); assay: flow cytometry, 10^10 PFU phage per 10^5 Jurkat cells, anti-M13 antibody
[5] = target: human CD3ε expressed on Jurkat T cells (clone E6-1) as part of TCR-CD3 complexes (human) (UniProt P07766); assay: flow cytometry, phage on Jurkat cells, anti-M13 antibody
[6] = target: recombinant human CD3ε biotinylated at the C-terminus, on streptavidin-coated microbeads (human) (UniProt P07766); assay: flow cytometry, phage on streptavidin microbeads decorated with biotinylated CD3ε

Measured: binding

FWSSPQMGGGS (peptide, not shown: large carriers) [phage clone 11 displaying anti-CD3ε peptide 11 (FWSSPQM)]
binds: [1] | [2] | [3]

WSLGYTGGGGS (peptide, not shown: large carriers) [phage clone 13 displaying anti-CD3ε peptide 13 (WSLGYTG)]
not listed: [2]
binds: all other assays above
